From PMC11909135, “Raptin, a sleep-induced hypothalamic hormone, suppresses appetite and obesity” (Cell Research, 2025)
Results are given in words; binding and its absence hold for the method and conditions named. For some of these results: In cells and extracts the contact can be indirect. Some binding calls cover weakened binding; strength is not graded here. Sequences can lack the tags named with a protein. Each block holds one molecule with its values, some of them ahead of it.

By UniProt entry, the sequences of proteins in these tests, tags left out. Where a name states a change or a piece, a line headed by the entry shows the natural chain unless it says otherwise. Chains listed by the source or under a name are the forms on record and can include a tag or linker. Residues count along the entry.
UniProt Q14832: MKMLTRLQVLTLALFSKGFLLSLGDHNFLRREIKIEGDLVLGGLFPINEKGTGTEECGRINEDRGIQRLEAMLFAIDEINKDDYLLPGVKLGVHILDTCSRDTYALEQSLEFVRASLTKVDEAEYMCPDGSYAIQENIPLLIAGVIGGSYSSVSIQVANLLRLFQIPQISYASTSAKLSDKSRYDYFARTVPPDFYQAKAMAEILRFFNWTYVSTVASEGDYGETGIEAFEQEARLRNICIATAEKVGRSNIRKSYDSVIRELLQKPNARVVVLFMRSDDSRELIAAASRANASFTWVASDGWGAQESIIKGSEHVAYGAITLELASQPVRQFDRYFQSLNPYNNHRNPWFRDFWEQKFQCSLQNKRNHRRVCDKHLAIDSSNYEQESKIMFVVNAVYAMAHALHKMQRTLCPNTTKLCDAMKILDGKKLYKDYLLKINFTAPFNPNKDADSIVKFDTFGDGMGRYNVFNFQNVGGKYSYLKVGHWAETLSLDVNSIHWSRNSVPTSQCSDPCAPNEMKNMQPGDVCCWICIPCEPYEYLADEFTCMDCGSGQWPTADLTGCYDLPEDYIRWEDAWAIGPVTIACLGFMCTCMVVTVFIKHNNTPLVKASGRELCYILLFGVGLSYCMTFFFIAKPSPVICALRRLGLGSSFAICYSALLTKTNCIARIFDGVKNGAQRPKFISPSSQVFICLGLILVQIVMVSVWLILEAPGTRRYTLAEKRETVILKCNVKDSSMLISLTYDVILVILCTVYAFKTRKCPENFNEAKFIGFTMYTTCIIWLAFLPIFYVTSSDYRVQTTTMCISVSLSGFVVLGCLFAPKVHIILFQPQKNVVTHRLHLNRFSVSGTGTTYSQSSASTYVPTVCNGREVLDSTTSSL
SNAP-tagged GRM3: residues 23-879 of Q14832
GRM3 VFT (extracellular venus flytrap domain of GRM3): residues 30-500 of Q14832

Tests used:
[1] = target: T1, recombinant mouse Raptin protein with a His-tag (mouse); experiment: co-IP; His-Raptin incubated with cell lysates 2 h at room temperature; anti-His antibody on protein A/G magnetic beads, 4 °C overnight; SDS-PAGE and blot; only the target purified
T1 sequence: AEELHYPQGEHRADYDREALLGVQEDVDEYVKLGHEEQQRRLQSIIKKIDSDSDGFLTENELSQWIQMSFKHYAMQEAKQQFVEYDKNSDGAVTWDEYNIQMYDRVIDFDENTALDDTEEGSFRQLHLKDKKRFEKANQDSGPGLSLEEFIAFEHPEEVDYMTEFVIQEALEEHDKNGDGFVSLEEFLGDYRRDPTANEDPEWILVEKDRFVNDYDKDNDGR

[2] = target: GRM3 overexpressed in HEK293T cells (Grm3 plasmid) (UniProt Q14832); experiment: saturation binding assay on cells; different doses of biotin-labeled His-Raptin on HEK293T cells with or without GRM3 or mutant GRM3-VFT overexpression, 30 min at room temperature; nonspecific binding with 50-fold excess unconjugated His-Raptin; streptavidin-HRP, absorbance at 450 nm, normalized to protein content; only the binder purified
SNAP-tagged GRM3 = SNAP-tagged GRM3 (UniProt Q14832); experiment: FRET or BRET; time-resolved FRET on HEK293 cells with SNAP-tagged GRM3 labelled with SNAP-Lumi4-Tb and SNAP-Green in Tag-Lite buffer; Raptin or glutamate added; acceptor ratio; only the binder purified
[3] = target: GRM3 VFT (extracellular venus flytrap domain of GRM3) (UniProt Q14832); experiment: co-IP; co-immunoprecipitation from cells transfected with human WT RCN2 or the RCN2 variant (HEK293T)

- binding [1]: binds
Molecule: GRM3 VFT (extracellular venus flytrap domain of GRM3) (from UniProt Q14832-1 30-500) (domain or fragment)

- binding [2]: binds
B1: biotin-labeled His-Raptin (ligand)
chain: AEELHYPQGEHRADYDREALLGVQEDVDEYVKLGHEEQQRRLQSIIKKIDSDSDGFLTENELSQWIQMSFKHYAMQEAKQQFVEYDKNSDGAVTWDEYNIQMYDRVIDFDENTALDDTEEGSFRQLHLKDKKRFEKANQDSGPGLSLEEFIAFEHPEEVDYMTEFVIQEALEEHDKNGDGFVSLEEFLGDYRRDPTANEDPEWILVEKDRFVNDYDKDNDGR
modifications: biotin (site not stated)

- binding (SNAP-tagged GRM3): binds
B2: recombinant mouse Raptin protein with a His-tag (ligand)
chain: AEELHYPQGEHRADYDREALLGVQEDVDEYVKLGHEEQQRRLQSIIKKIDSDSDGFLTENELSQWIQMSFKHYAMQEAKQQFVEYDKNSDGAVTWDEYNIQMYDRVIDFDENTALDDTEEGSFRQLHLKDKKRFEKANQDSGPGLSLEEFIAFEHPEEVDYMTEFVIQEALEEHDKNGDGFVSLEEFLGDYRRDPTANEDPEWILVEKDRFVNDYDKDNDGR

- binding [3]: no binding
B3: His-tagged RCN2 nonsense variant (p.Arg157Ter, c.469 C > T) (domain or fragment, UniProt Q14257 23-156)
chain: GKAEELHYPLGERRSDYDREALLGVQEDVDEYVKLGHEEQQKRLQAIIKKIDLDSDGFLTESELSSWIQMSFKHYAMQEAKQQFVEYDKNSDDTVTWDEYNIQMYDRVIDFDENTALDDAEEESFRKLHLKDKK
